Experiments:
11β-HSD1 Reductase = 11β-HSD1 Reductase (Rattus norvegicus, UniProt P16232); experiment: 11β-HSD1 reductase assay in rat Leydig cell homogenates; details: for inhibitors of 11β-HSD1 reductase (summary in words): summary of the screening;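 for all read-outs here: rat Leydig cell homogenate incubated 20 min at 37 °C, pH 7.4, with tritiated 11-dehydro-corticosterone and 3 mM NADPH, product measured by HPLC, inhibition from triplicate dose–response curves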
11β-HSD2 = target: T1, 11β-HSD2 (Ovis aries, UniProt P50168); experiment: 11β-HSD2 enzyme activity in sheep kidney microsomes; type: biochemical; details: for inhibitors of 11β-HSD2 (summary in words): summary of the screening
T1 construct: incubating sheep kidney microsomal fraction (6.5 μg protein) with 50 nM corticosterone; from tissue; host or cells: sheep kidney microsomal fraction
T1 sequence (P50168 1-427): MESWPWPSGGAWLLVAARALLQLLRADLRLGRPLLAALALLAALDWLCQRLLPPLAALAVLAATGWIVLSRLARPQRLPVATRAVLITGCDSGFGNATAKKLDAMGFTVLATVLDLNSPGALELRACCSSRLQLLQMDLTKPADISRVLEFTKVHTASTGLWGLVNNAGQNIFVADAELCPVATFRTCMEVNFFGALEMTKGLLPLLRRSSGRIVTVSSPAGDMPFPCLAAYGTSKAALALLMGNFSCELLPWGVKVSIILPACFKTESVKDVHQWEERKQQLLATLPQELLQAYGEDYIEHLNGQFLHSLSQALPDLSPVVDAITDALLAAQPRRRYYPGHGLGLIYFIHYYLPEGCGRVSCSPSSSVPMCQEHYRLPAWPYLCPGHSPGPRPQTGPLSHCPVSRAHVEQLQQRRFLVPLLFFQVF
Excerpt: The enzymatic reaction was termninated by addition of methanol and synthesis of 11-dehydro-corticosterone was quantitated by HPLC as described above.

Amino acid sequences for entries named in this document (tags omitted). A change or cut given only in a name is not applied to a line headed by its entry.
UniProt P16232: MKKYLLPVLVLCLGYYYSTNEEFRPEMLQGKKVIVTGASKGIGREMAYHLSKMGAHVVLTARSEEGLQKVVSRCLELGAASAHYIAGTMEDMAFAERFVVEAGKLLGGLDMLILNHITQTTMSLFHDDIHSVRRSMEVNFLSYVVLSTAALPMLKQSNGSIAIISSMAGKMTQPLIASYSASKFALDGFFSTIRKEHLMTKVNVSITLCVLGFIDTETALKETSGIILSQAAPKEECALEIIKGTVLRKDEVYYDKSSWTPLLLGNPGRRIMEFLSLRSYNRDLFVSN

11β-HSD1 Dehydrogenase = 11β-HSD1 Dehydrogenase (Rattus norvegicus, UniProt P16232); experiment: 11β-HSD1 dehydrogenase assay in rat Leydig cell homogenates; type: biochemical; parameters: Freshly prepared rat Leydig cell homogenates were chosen since they provide a rich and reliable source of both 11β-HSD1 dehydrogenase and reductase; from tissue; host or cells: rat testicular Leydig cells, homogenate;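 note: tritiated corticosterone conversion by 11β-HSD1 dehydrogenase in Leydig homogenates with 3 mM NADP at pH 8.4, 37 °C for 10 min, products resolved by HPLC, inhibition relative to uninhibited enzyme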
[1] = listed as 11-keto-allopregnanolone

Structure (SMILES)	IC50 (11β-HSD1 Reductase) [µM]	inhibitors of 11β-HSD1 reductase (summary in words) (11β-HSD1 Reductase)	inhibitors of 11β-HSD1 reductase (summary in words) (11β-HSD1 Reductase; [1])	IC50 (11β-HSD2) [µM]	inhibitors of 11β-HSD2 (summary in words) (11β-HSD2; […])	inhibitors of 11β-HSD2 (summary in words) (11β-HSD2; [1])	IC50 (11β-HSD1 Dehydrogenase) [µM]	Leydig Cell 11β-HSDl Dehydrogenase [S] = 600 nM (11β-HSD1 Dehydrogenase; rat Leydig cell homogenates, 600 nM corticosterone, progesterone and androgen derivatives)	Sheep kidney 11β-HSD2 [S] = 50 nM (11β-HSD2; sheep kidney microsomes, corticosterone substrate, progesterone and androgen derivatives)
CC(=O)[C@H]1CC[C@H]2[C@@H]3CC[C@@H]4C[C@H](O)CC[C@]4(C)[C@@H]3C(=O)C[C@]12C [11-Keto-allopregnanolone, 5α-Pregnan-3α-ol-11,20-dione]	0.8	potent inhibitors	high potency	1.5	high potency	potent inhibitors	> 100	inactive	–
CC(=O)[C@H]1CC[C@H]2[C@@H]3CC[C@@H]4C[C@H](O)CC[C@]4(C)[C@H]3C(=O)C[C@]12C [11-Keto-pregnanolone, 5β-Pregnan-3α-ol-11,20-dione]	65	–	–	> 10	–	–	> 100	–	inactive

Source: US20070093460A1, “Methods of using selective 11beta-HSD inhibitors to treat gluocorticoid associated states” (priority 2005, published 2007)
